From article PMC12778051
Results are given in words; binding and its absence hold for the method and conditions named. In cells and extracts the contact can be indirect. Some results given as binding are weak or reduced against the parent protein; the word gives no strength. Where a sequence is shown, tags or fusion partners need not be part of it.

Molecular target: Myc-LUBEL^1-872 (Drosophila melanogaster) (UniProt Q8IPJ3)
Experiment: co-IP; HA-LUBEL^1-872 and Myc-LUBEL^1-872 coexpressed in S2 cells; anti-HA IP, immunoblot

binding: binds
B1: Myc-LUBEL^1-872 (domain or fragment, UniProt Q8IPJ3 1-872)
chain: MTTHQLLNKNVRTMPSWVMEANDRIGPKPPPTPPNGVAGGLPKAPALPPKAKSTPEPDYEIIEFSSQQYSNEPMKTTVIRTKTPDNKLKCTLCGSQNPWVTCAECAGQIFCASCDDMFHKHPKRKQHMRKAVEQGTPPIPPKAQAGGGAPPPVAPPRRSKRGLLTPFLGRKDQMLPPPSPTPSHKSLGGWRGSLGGGATPPVPPIATSSANQMNNRPLPDPPRSEGGGSSRSGTPKSVFDTIQRPPSVQLEKIKSKASATLDRMAILQQRYRQQKARQDLSANSEQHLSNEAGFEHWSNISPSPSHFRSGSMSSGLNSSHFDLSDDSQFHNSLLLQQRQAAGAQRRQMSTSVFNLNSNPRRPLSEAQNGGAWLANQRIQQAQSLAQLNCAGCQQSQQHPGWAQHPHQALPQHQHPDQWSQFGSQQQFNNSNLSLNVGPGYMSQQHHPHYPPPVFMTQRGMMPNVYPGAPGYPMMHPGVMGMPPSAASRAASRSRYAASPTPSRKSMSLRRKRNSYVDDELTDDEDSDQDDRRSLVSNRSGMTSASRSQHHQNHIQPRQRRLSSASQLIASDELDGDQVHHKMRNRRGSIAKSVQSEWLPERRENEGTLTRNKTATDSARTSRIYSDLESEGSGARALVQAKIQQKLQEADQHKSSKKAEPKRKPEMKDENTQAAAVVQKVVVPPAHEESASEYEEVVEEVTASESEAEAQTAPDPQEVPDEIGADDLGPPPSTPDHEWECEFCTFVNEPNIKICSICCKTPSKPPVQPNKAKKVEEKPQPPAEKSNNIKASSKTETKPVQKPTTKSQQPSQKSVAALSKTTHTNSTSSSKASPAVNSKTTSSIPIKTPSKSTLKTSSENESDNSLAKSLLHK
